Results taken from the supplement of paper PMC7666118.
Some of the results follow.

Amino acid sequences for entries named in this document (tags omitted). A change or cut given only in a name is not applied to a line headed by its entry.
UniProt Q96SB3: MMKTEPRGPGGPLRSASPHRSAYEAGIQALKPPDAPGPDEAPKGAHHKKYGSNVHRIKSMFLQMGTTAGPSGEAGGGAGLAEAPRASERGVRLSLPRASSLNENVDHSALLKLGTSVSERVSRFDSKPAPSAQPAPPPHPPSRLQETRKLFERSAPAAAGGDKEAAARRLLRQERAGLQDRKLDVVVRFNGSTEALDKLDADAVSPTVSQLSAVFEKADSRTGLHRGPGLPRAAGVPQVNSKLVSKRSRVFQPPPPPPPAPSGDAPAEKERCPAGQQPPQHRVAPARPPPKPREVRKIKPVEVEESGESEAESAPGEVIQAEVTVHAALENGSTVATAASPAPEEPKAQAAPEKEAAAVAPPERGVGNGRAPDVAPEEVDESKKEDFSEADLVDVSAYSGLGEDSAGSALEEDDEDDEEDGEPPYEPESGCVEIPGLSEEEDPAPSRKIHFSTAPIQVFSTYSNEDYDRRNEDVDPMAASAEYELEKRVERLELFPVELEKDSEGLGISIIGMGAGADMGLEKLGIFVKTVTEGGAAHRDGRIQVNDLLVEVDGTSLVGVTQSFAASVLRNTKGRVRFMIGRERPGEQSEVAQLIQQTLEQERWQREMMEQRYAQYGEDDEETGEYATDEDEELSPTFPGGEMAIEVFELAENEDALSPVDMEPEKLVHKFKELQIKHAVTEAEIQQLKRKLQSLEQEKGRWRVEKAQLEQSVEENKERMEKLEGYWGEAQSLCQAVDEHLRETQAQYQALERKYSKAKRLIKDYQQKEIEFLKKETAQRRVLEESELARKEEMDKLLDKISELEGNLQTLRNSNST
UniProt P23284: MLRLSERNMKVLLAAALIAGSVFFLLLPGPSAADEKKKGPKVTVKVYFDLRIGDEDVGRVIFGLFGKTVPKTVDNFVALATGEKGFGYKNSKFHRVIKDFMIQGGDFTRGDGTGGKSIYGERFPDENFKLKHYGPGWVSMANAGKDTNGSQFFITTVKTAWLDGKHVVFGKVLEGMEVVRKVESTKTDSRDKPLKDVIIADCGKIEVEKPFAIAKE
UniProt P10644, whole entry: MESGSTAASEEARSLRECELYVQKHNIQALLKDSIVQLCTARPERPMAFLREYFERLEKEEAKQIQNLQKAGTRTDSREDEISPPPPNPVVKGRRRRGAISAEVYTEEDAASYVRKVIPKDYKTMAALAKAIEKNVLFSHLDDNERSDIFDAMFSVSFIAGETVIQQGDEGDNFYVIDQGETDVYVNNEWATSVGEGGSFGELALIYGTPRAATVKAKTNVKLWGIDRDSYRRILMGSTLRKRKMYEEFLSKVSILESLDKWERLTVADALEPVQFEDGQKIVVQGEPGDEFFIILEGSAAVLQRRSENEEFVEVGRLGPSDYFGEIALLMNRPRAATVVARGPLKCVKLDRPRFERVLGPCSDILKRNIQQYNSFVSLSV
UniProt O14802: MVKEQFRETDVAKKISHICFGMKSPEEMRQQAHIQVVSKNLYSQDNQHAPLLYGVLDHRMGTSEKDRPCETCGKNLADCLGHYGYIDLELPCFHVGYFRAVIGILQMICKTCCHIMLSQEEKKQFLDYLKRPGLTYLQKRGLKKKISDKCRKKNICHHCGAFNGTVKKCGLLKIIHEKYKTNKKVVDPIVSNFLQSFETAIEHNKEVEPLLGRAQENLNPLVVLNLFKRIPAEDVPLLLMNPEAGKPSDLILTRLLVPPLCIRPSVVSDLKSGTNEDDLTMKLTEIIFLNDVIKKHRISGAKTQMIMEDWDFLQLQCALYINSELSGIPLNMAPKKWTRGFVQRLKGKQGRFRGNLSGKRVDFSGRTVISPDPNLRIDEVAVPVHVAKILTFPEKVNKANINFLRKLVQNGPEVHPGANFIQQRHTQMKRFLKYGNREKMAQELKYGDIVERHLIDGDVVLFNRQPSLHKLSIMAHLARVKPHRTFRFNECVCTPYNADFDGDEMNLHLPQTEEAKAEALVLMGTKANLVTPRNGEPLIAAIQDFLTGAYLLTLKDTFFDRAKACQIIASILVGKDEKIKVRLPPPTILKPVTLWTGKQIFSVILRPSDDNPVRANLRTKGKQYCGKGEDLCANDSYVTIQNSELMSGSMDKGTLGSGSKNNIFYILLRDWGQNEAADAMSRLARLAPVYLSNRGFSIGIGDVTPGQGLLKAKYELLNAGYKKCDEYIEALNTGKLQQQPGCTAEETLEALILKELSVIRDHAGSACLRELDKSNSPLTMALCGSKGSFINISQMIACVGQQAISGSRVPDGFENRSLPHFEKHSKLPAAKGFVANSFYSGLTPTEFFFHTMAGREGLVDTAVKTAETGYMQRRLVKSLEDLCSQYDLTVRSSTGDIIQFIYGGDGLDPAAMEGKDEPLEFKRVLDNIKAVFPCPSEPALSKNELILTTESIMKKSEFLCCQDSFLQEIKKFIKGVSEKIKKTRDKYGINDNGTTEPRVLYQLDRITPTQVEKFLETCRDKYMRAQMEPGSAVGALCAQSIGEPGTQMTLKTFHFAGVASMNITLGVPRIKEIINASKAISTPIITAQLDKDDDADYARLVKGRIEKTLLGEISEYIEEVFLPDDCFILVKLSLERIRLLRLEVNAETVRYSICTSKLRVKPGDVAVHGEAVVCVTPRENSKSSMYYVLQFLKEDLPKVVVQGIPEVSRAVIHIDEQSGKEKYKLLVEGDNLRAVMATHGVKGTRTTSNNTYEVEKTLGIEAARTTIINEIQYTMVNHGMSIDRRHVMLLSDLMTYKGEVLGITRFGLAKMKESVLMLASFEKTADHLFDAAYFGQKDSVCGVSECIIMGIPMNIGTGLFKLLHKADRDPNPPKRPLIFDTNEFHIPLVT
UniProt Q8IY26: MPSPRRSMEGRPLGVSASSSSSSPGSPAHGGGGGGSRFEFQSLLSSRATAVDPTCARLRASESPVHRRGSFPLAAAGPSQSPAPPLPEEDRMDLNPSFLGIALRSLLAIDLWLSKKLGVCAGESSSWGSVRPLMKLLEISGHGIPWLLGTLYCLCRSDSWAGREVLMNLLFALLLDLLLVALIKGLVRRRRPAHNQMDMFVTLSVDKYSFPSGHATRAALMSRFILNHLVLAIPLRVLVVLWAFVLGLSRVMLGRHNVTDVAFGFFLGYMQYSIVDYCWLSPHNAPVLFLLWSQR
UniProt Q9Y2G5: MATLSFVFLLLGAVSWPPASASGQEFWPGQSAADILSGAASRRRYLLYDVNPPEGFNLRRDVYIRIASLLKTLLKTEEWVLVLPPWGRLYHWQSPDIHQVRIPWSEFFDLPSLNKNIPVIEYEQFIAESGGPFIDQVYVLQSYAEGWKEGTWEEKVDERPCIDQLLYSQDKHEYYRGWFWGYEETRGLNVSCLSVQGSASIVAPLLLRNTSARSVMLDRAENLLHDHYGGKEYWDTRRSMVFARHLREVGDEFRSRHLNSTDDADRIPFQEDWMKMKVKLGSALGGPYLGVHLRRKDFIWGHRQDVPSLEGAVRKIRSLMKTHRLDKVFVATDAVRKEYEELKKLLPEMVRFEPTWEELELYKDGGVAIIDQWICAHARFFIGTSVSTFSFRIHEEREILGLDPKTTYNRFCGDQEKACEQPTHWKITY
UniProt Q9NRX1: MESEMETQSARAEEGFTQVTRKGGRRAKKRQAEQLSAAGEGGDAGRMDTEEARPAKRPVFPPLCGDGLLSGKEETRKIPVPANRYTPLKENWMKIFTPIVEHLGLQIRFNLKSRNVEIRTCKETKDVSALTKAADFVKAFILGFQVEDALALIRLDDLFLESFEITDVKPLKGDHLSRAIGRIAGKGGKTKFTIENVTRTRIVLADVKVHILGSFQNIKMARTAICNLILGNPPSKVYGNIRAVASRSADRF
UniProt Q8IWE5: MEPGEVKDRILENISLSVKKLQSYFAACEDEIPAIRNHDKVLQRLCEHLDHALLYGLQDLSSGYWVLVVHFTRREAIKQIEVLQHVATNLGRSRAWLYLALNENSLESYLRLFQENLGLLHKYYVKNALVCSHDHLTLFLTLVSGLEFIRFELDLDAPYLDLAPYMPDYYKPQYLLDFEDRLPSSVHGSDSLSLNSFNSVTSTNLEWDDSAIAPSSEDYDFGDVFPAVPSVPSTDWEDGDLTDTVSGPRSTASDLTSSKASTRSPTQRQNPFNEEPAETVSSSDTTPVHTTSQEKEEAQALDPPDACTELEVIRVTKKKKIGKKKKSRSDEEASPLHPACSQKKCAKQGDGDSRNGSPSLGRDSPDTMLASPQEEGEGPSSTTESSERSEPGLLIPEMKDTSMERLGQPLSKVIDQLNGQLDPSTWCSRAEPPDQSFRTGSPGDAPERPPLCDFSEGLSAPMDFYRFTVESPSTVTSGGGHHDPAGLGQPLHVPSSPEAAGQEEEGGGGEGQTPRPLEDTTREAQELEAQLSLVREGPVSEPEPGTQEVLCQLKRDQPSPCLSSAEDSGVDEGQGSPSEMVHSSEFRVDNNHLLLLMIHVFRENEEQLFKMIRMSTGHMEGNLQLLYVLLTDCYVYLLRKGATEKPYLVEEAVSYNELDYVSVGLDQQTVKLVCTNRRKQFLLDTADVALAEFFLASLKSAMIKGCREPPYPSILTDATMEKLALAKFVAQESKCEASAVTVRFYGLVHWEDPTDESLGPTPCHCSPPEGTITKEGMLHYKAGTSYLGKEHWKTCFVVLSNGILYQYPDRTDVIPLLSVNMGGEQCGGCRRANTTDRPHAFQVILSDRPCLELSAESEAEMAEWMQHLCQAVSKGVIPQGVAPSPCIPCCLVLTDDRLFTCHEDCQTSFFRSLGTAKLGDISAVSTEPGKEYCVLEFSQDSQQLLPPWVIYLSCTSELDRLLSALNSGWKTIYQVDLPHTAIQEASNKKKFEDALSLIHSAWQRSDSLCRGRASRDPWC
UniProt Q9NRX4: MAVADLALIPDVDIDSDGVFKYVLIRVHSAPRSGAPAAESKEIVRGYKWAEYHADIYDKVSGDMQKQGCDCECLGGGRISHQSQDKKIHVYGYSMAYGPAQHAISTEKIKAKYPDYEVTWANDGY
UniProt P62937, whole entry, looked up: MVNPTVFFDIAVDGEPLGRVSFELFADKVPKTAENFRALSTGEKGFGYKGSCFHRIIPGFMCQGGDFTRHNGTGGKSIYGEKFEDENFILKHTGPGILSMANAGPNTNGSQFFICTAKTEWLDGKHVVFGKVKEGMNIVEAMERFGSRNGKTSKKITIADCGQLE
UniProt Q9NXJ5: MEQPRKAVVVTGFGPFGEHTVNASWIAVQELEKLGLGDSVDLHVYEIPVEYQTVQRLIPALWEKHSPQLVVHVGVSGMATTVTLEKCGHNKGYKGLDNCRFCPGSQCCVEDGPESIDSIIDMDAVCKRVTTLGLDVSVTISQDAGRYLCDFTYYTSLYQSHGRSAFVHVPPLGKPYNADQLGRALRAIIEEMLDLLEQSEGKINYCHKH
UniProt P63098, whole entry, looked up: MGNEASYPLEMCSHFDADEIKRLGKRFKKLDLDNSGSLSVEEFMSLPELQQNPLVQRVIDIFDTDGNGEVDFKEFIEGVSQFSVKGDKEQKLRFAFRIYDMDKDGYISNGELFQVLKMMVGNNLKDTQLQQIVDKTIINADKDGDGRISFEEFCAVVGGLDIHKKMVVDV
UniProt Q93100: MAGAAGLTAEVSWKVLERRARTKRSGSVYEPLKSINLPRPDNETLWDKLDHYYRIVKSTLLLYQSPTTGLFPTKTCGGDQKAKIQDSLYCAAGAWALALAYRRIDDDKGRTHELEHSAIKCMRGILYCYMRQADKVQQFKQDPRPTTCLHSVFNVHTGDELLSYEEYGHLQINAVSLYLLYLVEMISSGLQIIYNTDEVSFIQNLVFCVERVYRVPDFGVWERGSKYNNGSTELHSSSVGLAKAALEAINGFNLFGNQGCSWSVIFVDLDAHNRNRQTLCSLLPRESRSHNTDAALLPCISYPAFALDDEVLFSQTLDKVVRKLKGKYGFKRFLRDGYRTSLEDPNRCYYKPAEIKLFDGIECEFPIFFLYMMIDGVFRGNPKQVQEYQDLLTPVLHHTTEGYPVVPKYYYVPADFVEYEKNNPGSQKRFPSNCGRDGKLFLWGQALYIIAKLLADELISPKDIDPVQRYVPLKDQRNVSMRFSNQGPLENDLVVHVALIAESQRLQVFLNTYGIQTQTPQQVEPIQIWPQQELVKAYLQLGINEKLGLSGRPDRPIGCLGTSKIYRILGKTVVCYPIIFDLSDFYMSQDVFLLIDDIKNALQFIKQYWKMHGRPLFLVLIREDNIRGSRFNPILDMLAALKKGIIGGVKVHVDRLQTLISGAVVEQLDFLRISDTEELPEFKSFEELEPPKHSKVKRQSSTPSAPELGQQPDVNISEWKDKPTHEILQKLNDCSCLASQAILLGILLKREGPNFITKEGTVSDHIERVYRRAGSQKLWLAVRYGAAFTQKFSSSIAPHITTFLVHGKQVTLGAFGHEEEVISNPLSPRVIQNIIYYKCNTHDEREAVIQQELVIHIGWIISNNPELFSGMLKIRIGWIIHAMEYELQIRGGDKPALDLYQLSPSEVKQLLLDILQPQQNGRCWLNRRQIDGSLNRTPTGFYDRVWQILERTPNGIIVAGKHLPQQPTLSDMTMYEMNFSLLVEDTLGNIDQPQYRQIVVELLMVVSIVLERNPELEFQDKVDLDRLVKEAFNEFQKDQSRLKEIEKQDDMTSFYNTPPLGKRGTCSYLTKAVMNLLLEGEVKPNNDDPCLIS

compound: COc1ccc(Cn2ccc3ccc(C(=O)NO)cc32)cc1; assay: dose-dependent thermal stabilisation call (2D-TPP, DLPTP, 10% FDR) (binary (1 = stabilised)); higher = stabilised by the compound; conditions: system: HL-60 intact cells; concentration range 0.04-10 µM

Row | Target | dose-dependent thermal stabilisation call
1 | PIK3CD (UniProt O00329) | inactive: 0
2 | POLR2B (UniProt P30876) | inactive: 0
3 | PPP1R9B (UniProt Q96SB3) | inactive: 0
4 | PKN2 (UniProt Q16513) | inactive: 0
5 | PKP1 (UniProt Q13835) | inactive: 0
6 | POLR1A (UniProt O95602) | inactive: 0
7 | POT1 (UniProt Q9NUX5) | inactive: 0
8 | PNPT1 (UniProt Q8TCS8) | inactive: 0
9 | POLD3 (UniProt Q15054) | inactive: 0
10 | PPP5C (UniProt P53041) | inactive: 0
11 | PODXL2 (UniProt Q9NZ53) | inactive: 0
12 | PPIB (UniProt P23284) | inactive: 0
13 | PPT1 (UniProt P50897) | inactive: 0
14 | PLOD1 (UniProt Q02809) | inactive: 0
15 | PHB (UniProt P35232) | inactive: 0
16 | PRKAR1A (UniProt P10644) | inactive: 0
17 | POLR3A (UniProt O14802) | inactive: 0
18 | PPAPDC2 (UniProt Q8IY26) | inactive: 0
19 | PHACTR2 (UniProt O75167) | inactive: 0

3 entries from above in another layout.
POLR2B (UniProt P30876)
  dose-dependent thermal stabilisation call: inactive: 0
PKP1 (UniProt Q13835)
  dose-dependent thermal stabilisation call: inactive: 0
PPIB (UniProt P23284)
  dose-dependent thermal stabilisation call: inactive: 0

(list continues)

Row | Target | dose-dependent thermal stabilisation call
20 | POLR3F (UniProt Q9H1D9) | inactive: 0
21 | POFUT2 (UniProt Q9Y2G5) | inactive: 0
22 | PNO1 (UniProt Q9NRX1) | inactive: 0
23 | PHF5A (UniProt Q7RTV0) | inactive: 0
24 | POLA1 (UniProt P09884) | inactive: 0
25 | PPCS (UniProt Q9HAB8) | inactive: 0
26 | PLEKHM2 (UniProt Q8IWE5) | inactive: 0
27 | PPP1R13L (UniProt Q8WUF5) | inactive: 0
28 | PHPT1 (UniProt Q9NRX4) | inactive: 0
29 | PPIA (UniProt P62937) | inactive: 0
30 | PHF23 (UniProt Q9BUL5) | inactive: 0
31 | PNKD (UniProt Q8N490) | inactive: 0
32 | PGPEP1 (UniProt Q9NXJ5) | inactive: 0
33 | PPP3R1 (UniProt P63098) | inactive: 0
34 | PPFIA1 (UniProt Q13136) | inactive: 0
35 | PI4KA (UniProt P42356) | inactive: 0
36 | PHKB (UniProt Q93100) | inactive: 0
37 | PPM1G (UniProt O15355) | inactive: 0
38 | POLR2E (UniProt P19388) | inactive: 0
